These results are taken from PMC7728077, “Double-Headed Cationic Lipopeptides: An Emerging Class of Antimicrobials” (International Journal of Molecular Sciences, 2020).

The subject of data set [1] is POPG large unilamellar vesicles (LUVs). Briefly: Isothermal titration calorimetry, binding to POPG. To be noted: ITC, 1.3 mM POPG LUVs titrated into 0.05 or 0.1 mM lipopeptide, PBS, 298.15 K; single transition or first line of two binding events. The protocol: (§1) Isothermal titration calorimetry (ITC) experiments were carried out at 298.15 K using an AutoITC isothermal titration calorimeter (MicroCal Inc., GE Healthcare, Northampton, MA, USA) equipped with a 1.4491 mL sample cell and a reference cell. A typical ITC experiment involved a series of consecutive injections of 10.02 µL aliquots of the titrant (2 µL for the first injection only) into the reaction cell, at an interval of 4 min. The stirrer speed was constantly kept at 300 rpm to provide thorough mixing inside the reaction cell. Three types of ITC experiments were performed. These included lipopeptides binding to POPG, POPC, and LPS. The experiments were carried out by titration of 1.3 mM POPG or POPC LUVs into 0.05 or 0.1 mM lipopeptide solutions and the titration of 0.5 or 0.75 mM lipopeptide solution into 200 or 400 µg/mL LPS solution. The molecular mass of LPS was assumed to be 20,000 Da. To assess the heat of dilution, control experiments were performed by titration of an appropriate titrant into PBS. Final results were evaluated with an ITC module for ORIGIN 7 software, provided by MicroCal, Inc. (Northampton, MA, USA). The binding constant, stoichiometry, and enthalpy of interactions were directly determined from ITC experiment by fitting one of the built-in curve fitting models to the experimental data points. Changes in entropy (∆S°) and the Gibbs free energy (∆G°) were calculated from the following equation: ∆G^°=−RTln(55.5Ka)=∆H^°−T∆S^° where 55.5 is the molar concentration of water, R is the gas constant (1.986 cal·mol^−1·K^−1), and T is the absolute temperature.
Background: ITC needs no label: the signal is the heat of the interaction.

Data set [2] deals with lipopolysaccharide (LPS) E. coli 055:B5. The data set is described as follows: Isothermal titration calorimetry, binding to LPS. Particulars: ITC. The protocol: as §1
The mark [3] stands for this setting: two sets of sites model, site 2.

Square brackets hold non-standard residues; d marks the D form. Peptide text beside a SMILES is read from it. * marks the point of attachment. Palmitoyl = CCCCCCCCCCCCCCCC(=O)*; Dab = NCC[C@H](N)C(=O)O

For `CCCCCCCCCCCCCCCC(=O)NCC[C@H](NC(=O)[C@@H](N)CCCCN)C(=O)N[C@@H](CCCCN)C(N)=O` [K(DabC16)K-NH2] (H-Lys-[Dab](Palmitoyl)-Lys-NH2), the “n (stoichiometry), POPG” value in data set [1] was 0.73 ± 0.06.

Consider `CCCCCCCCCCCCCCCC(=O)NCCCC[C@H](NC(=O)[C@@H](N)CCCCN)C(=O)N[C@@H](CCCCN)C(N)=O` [K(KC16)K-NH2], for which the “n (stoichiometry), POPG” value in data set [1] was 1.13 ± 0.03.

Take `CCCCCCCCCCCCCCCC(=O)NCCC[C@H](NC(=O)[C@@H](N)CCCCN)C(=O)N[C@@H](CCCCN)C(N)=O` [K(OC16)K-NH2]: the “n (stoichiometry), POPG” value in data set [1] was found to be 1.59 ± 0.03.

With `CCCCCCCCCCCCCCCC(=O)NCCCC[C@H](NC(=O)[C@H](CCCCN)NC(=O)[C@@H](N)CCCCN)C(=O)N[C@@H](CCCCN)C(=O)N[C@@H](CCCCN)C(N)=O` [KK(KC16)KK-NH2] (H-KKK(Palmitoyl)KK-NH2), the “ΔG°, LPS E. coli 055:B5” value was -12.83 ± 0.40 kcal/mol in data set [2] (calculated, site 1) and -11.07 ± 0.19 kcal/mol in data set [2] (calculated, site 2). Besides, the “TΔS°, LPS E. coli 055:B5” value in data set [2] (calculated, site 2 (enthalpy-driven)) is -2.09 ± 1.43 kcal/mol. Moreover, the “ΔH1°, LPS E. coli 055:B5” value in data set [2] (two sets of sites model, site 1) was -1.96 ± 0.50 kcal/mol. Besides, the “n2 (stoichiometry), LPS E. coli 055:B5” value in data set [2] (setting [3]) came to 0.67 ± 0.06. Besides, the “ΔH2°, LPS E. coli 055:B5” value in data set [2] (setting [3]) is -13.16 ± 1.42 kcal/mol.
